{"source": "PubChem BioAssay AID1671195 (Yale University, 2021)", "screen": "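Genes whose knockdown alters LDL uptake in liver cancer cells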 (primary screen)", "cell system": "human Huh7 hepatoma cells", "reagents": "siRNA pool against human genes, 18 nM", "timing": "about 2 to 2.5 days of knockdown, then 8 h LDL uptake", "conditions": "DiI-labelled LDL at 30 µg/ml for 8 h, in lipoprotein-deficient serum medium", "measurement": "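Per-cell DiI-LDL intensity by automated imaging; well means scaled to the plate median and given as a robust z-score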", "scale": "robust z-score: higher = more LDL uptake after knockdown", "rule for the call": "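Active when two or more replicates show a robust z-score above 2 or below -2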", "note": "This is an unselected part of about 22,000 reagents. Over the whole deposit, about 1,510 (6.9%) were called active. 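Active includes knockdowns raising or lowering LDL uptake; positive z-scores mean more uptake, negative mean less.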 Reagent sequences are not shown."}
{"target": "LINC01551 (long independently transcribed non-coding RNA 1551)", "robust z-score, replicate 1": 1.35, "robust z-score, replicate 2": 1.13, "robust z-score, replicate 3": 0.947, "call": "inactive"}
{"target": "ZNF677 (zinc finger protein 677)", "robust z-score, replicate 1": 0.651, "robust z-score, replicate 2": 0.931, "robust z-score, replicate 3": 0.901, "call": "inactive"}
{"target": "FRG1BP (FSHD region gene 1 family member B, pseudogene)", "robust z-score, replicate 1": -0.162, "robust z-score, replicate 2": 0.527, "robust z-score, replicate 3": -0.00323, "call": "inactive"}
{"target": "TDG (thymine DNA glycosylase)", "robust z-score, replicate 1": -1.22, "robust z-score, replicate 2": -0.642, "robust z-score, replicate 3": -0.933, "call": "inactive"}
{"target": "QNG1 (Q-nucleotide N-glycosylase 1)", "robust z-score, replicate 1": -0.3, "robust z-score, replicate 2": -0.531, "robust z-score, replicate 3": -0.641, "call": "inactive"}
{"target": "PCYT1B (phosphate cytidylyltransferase 1B, choline)", "robust z-score, replicate 1": 0.235, "robust z-score, replicate 2": 0.124, "robust z-score, replicate 3": 0.791, "call": "inactive"}
{"target": "HEPH (hephaestin)", "robust z-score, replicate 1": 0.543, "robust z-score, replicate 2": 1.12, "robust z-score, replicate 3": 1.06, "call": "inactive"}
{"target": "FMN1 (formin 1)", "robust z-score, replicate 1": -1.03, "robust z-score, replicate 2": -1.53, "robust z-score, replicate 3": -1.2, "call": "inactive"}
{"target": "FBLN5 (fibulin 5)", "robust z-score, replicate 1": 2.19, "robust z-score, replicate 2": 0.842, "robust z-score, replicate 3": 3.27, "call": "active"}
{"target": "TEX14BP (testis expressed 14B, pseudogene)", "robust z-score, replicate 1": -0.253, "robust z-score, replicate 2": -0.27, "robust z-score, replicate 3": 0.267, "call": "inactive"}
{"target": "LOC389650 (retired record)", "robust z-score, replicate 1": -0.86, "robust z-score, replicate 2": -0.473, "robust z-score, replicate 3": -1.07, "call": "inactive"}
{"target": "SAGE4P (sarcoma antigen 4, pseudogene)", "robust z-score, replicate 1": -0.43, "robust z-score, replicate 2": -0.322, "robust z-score, replicate 3": -2.67, "call": "inactive"}
{"target": "LOC441709 (retired record)", "robust z-score, replicate 1": -1.12, "robust z-score, replicate 2": -0.747, "robust z-score, replicate 3": -0.536, "call": "inactive"}
{"target": "LOC441657 (retired record)", "robust z-score, replicate 1": -1.29, "robust z-score, replicate 2": -1.25, "robust z-score, replicate 3": -0.884, "call": "inactive"}
{"target": "ST8SIA4 (ST8 alpha-N-acetyl-neuraminide alpha-2,8-sialyltransferase 4)", "robust z-score, replicate 1": -0.686, "robust z-score, replicate 2": -0.0973, "robust z-score, replicate 3": -0.453, "call": "inactive"}
{"target": "OLFM2 (olfactomedin 2)", "robust z-score, replicate 1": -0.0723, "robust z-score, replicate 2": -1.02, "robust z-score, replicate 3": -0.554, "call": "inactive"}
{"target": "LOC151154 (retired record)", "robust z-score, replicate 1": -1.42, "robust z-score, replicate 2": -1.01, "robust z-score, replicate 3": -0.902, "call": "inactive"}
{"target": "POTEC (POTE ankyrin domain family member C)", "robust z-score, replicate 1": 1.16, "robust z-score, replicate 2": 1.14, "robust z-score, replicate 3": 0.924, "call": "inactive"}
{"target": "LINC02487 (long independently transcribed non-coding RNA 2487)", "robust z-score, replicate 1": -0.329, "robust z-score, replicate 2": -1.08, "robust z-score, replicate 3": -0.611, "call": "inactive"}
{"target": "HNRNPA3P5 (heterogeneous nuclear ribonucleoprotein A3 pseudogene 5)", "robust z-score, replicate 1": -1.33, "robust z-score, replicate 2": -1.21, "robust z-score, replicate 3": -1.19, "call": "inactive"}
{"target": "IL1RAP (interleukin 1 receptor accessory protein)", "robust z-score, replicate 1": -1.23, "robust z-score, replicate 2": -2.02, "robust z-score, replicate 3": -1.37, "call": "inactive"}
{"target": "LOC389815 (retired record)", "robust z-score, replicate 1": 0.492, "robust z-score, replicate 2": 0.398, "robust z-score, replicate 3": 1.04, "call": "inactive"}
{"target": "IGFBP1 (insulin like growth factor binding protein 1)", "robust z-score, replicate 1": 1.14, "robust z-score, replicate 2": 0.279, "robust z-score, replicate 3": 0.514, "call": "inactive"}
{"target": "OR52R1 (olfactory receptor family 52 subfamily R member 1)", "robust z-score, replicate 1": -0.017, "robust z-score, replicate 2": -0.000754, "robust z-score, replicate 3": -0.244, "call": "inactive"}
